{"source": "paper PMC7658222", "key": {"[1]": {"biological_target": "MsmX K43A from B. subtilis (B. subtilis) (UniProt P94360)", "assay": "SEC; last step of purification, Superdex 75 10/300 GL in buffer B (10 mM Tris-HCl pH 7.4, 300 mM NaCl, 10 mM MgCl2); both purified"}, "[2]": {"biological_target": "MsmX K43A from B. subtilis (B. subtilis) (UniProt P94360)", "assay": "crystal structure; crystallised without ligands, space group I222, one molecule in the asymmetric unit, 1.67 Å; interfaces looked at with the PISA server; both purified"}}, "note": "Results are given in words; binding and its absence hold for the method and conditions named."}
{"binder": "MsmX K43A from B. subtilis (enzyme, UniProt P94360 1-365) MAELRMEHIYKFYDQKEPAVDDFNLHIADKEFIVFVGPSGCGASTTLRMVAGLEEISKGDFYIEGKRVNDVAPKDRDIAMVFQNYALYPHMTVYDNIAFGLKLRKMPKPEIKKRVEEAAKILGLEEYLHRKPKALSGGQRQRVALGRAIVRDAKVFLMDEPLSNLDAKLRVQMRAEIIKLHQRLQTTTIYVTHDQTEALTMATRIVVMKDGKIQQIGTPKDVYEFPENVFVGGFIGSPAMNFFKGKLTDGLIKIGSAALTVPEGKMKVLREKGYIGKEVIFGIRPEDIHDELIVVESYKNSSIKAKINVAELLGSEIMIYSQIDNQDFIARIDARLDIQSGDELTVAFDMNKGHFFDSETEVRIR", "values": [{"measurement": "binding", "setting": "[1]", "result": "no binding"}, {"measurement": "binding", "setting": "[2]", "result": "no binding"}]}
